Measurements: paper doi:10.1101/2023.09.15.557008
No constants are given. Whether binding was seen depends on the method and setting. For some assays here: In cells and extracts the contact can be indirect. Some results given as binding are weak or reduced against the parent protein; the word gives no strength.

Sequences of proteins named here, by UniProt entry; tags and fusion partners are left off. A change or cut given only in a name is not applied to a line headed by its entry. Residues count along the entry.
UniProt P80188, residues 21-198: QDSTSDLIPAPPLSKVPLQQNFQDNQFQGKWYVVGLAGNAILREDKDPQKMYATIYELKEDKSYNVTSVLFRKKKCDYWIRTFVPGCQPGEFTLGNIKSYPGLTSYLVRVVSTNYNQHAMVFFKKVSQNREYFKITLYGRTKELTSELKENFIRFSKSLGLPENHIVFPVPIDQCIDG
UniProt P03951: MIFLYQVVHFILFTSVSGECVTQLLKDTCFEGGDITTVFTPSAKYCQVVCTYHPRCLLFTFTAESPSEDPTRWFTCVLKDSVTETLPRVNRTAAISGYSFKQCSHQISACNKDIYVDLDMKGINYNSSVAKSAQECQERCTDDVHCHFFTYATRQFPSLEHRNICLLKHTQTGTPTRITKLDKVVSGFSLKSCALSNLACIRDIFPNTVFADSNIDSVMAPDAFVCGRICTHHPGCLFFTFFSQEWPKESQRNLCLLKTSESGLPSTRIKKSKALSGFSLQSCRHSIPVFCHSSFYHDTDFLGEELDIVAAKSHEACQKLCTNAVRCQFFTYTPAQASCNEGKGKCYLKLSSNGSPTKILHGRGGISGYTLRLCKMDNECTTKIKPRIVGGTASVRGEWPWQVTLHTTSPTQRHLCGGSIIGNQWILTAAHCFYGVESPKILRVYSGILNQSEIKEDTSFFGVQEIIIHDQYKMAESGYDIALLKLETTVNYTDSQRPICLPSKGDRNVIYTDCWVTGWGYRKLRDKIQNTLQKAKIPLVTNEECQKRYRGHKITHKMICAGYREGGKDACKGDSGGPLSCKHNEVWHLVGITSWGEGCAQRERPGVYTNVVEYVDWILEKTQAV
UniProt P08709: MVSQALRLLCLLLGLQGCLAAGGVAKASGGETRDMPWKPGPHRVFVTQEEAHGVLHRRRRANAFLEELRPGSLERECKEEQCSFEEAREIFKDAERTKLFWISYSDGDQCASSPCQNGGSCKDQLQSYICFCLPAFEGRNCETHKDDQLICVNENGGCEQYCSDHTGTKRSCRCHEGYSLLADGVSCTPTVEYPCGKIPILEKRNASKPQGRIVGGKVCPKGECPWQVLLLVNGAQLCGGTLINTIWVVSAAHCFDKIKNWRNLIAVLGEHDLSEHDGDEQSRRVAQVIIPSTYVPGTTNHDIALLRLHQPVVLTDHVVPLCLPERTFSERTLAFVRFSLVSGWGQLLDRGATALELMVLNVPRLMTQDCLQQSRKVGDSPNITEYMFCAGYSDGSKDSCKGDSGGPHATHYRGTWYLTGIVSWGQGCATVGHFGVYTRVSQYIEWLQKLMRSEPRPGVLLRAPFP
UniProt P01008, residues 33-464: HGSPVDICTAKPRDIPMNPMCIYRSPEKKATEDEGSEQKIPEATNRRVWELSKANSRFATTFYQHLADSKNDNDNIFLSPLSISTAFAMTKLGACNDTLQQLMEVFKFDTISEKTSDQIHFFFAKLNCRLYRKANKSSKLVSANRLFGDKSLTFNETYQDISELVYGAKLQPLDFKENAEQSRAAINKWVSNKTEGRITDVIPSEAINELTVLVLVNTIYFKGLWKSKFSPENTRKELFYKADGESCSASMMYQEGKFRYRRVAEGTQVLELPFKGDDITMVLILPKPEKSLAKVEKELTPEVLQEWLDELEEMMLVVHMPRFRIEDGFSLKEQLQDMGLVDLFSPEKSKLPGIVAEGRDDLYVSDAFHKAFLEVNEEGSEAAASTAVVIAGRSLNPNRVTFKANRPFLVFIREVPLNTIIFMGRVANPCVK
UniProt P03952: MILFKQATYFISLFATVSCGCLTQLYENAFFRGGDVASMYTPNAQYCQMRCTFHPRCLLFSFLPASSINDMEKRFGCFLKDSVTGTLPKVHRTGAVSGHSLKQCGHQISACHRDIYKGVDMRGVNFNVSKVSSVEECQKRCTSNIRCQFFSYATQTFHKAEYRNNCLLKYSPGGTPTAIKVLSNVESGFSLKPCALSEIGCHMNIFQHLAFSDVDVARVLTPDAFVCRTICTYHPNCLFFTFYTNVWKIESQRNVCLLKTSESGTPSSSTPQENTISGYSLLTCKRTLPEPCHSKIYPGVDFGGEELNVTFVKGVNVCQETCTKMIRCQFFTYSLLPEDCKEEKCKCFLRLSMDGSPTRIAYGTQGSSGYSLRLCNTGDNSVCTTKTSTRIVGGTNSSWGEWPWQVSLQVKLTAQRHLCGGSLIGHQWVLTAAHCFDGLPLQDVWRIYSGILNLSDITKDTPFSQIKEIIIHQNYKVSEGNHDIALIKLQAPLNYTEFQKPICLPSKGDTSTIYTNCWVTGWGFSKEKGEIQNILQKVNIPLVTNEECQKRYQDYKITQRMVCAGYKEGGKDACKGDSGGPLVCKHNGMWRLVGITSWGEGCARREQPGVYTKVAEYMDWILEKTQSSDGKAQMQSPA

Experiments:
[1] = target: human neutrophil gelatinase-associated apolipoprotein (NGAL) (human) (UniProt P80188); experiment: SPR
[2] = target: NGAL in normal plasma (human (endogenous in plasma)) (UniProt P80188); experiment: co-IP

binding [1]	binding [2]	Substance
binds		FXIa (from UniProt P03951 19-387; P03951 388-625) (enzyme)
binds		human FVIIa (from UniProt P08709 61-212; P08709 213-466) (enzyme)

The remaining lines, values behind:

Substance	binding [1]	binding [2]
antithrombin (from UniProt P01008 33-464)	binds	
antithrombin in normal plasma (from UniProt P01008 33-464)		binds
human kallikrein (from UniProt P03952 20-390; P03952 391-638) (enzyme)	binds	
